For two substances, binding results are on record in paper PMC5649179.

Chains of the proteins cited; added tags and fusions are not shown.
UniProt P63074: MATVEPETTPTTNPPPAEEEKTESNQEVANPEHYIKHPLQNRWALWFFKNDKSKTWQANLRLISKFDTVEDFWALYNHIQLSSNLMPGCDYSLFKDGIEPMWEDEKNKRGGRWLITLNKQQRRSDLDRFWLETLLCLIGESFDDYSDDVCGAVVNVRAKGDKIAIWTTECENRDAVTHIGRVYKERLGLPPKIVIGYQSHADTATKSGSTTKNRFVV
UniProt Q9EPW1: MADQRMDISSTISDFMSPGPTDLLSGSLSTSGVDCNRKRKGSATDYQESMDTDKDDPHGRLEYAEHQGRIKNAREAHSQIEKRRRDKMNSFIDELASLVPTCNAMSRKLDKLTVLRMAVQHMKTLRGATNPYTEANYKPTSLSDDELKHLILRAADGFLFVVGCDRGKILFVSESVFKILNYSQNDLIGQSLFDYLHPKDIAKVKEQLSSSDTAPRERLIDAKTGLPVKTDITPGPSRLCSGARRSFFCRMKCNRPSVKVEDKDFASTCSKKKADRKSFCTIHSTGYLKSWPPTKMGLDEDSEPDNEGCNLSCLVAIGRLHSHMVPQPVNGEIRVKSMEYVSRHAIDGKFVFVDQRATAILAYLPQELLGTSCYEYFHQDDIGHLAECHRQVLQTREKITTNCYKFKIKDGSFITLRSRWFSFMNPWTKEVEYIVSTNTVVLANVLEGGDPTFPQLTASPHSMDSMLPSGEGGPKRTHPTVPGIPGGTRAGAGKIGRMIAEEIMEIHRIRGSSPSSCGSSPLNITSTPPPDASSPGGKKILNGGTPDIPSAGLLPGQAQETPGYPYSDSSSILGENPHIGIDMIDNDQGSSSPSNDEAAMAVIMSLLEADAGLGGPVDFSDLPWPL

These are yes or no findings as the source states them, for the method shown. In cells and extracts the contact can be indirect. Some binding calls cover weakened binding; strength is not graded here.

This assay concerns the target eukaryotic translation initiation factor eIF4E (rat (endogenous in prefrontal cortex and hippocampus)) (UniProt P63074). Description: pull-down; m7GTP (cap) pull-down: 300-400 ug protein of rat prefrontal cortex or hippocampus lysate with 30 ul 7-methyl GTP-agarose beads, 2 h at 4 °C, lysis buffer 50 mM Tris, 100 mM NaCl, 1 mM EDTA, 0.5% NP-40, 1 mM DTT; three washes; eIF4E held by the cap analogue, bound proteins found by immunoblot and normalised to recovered eIF4E; animals undisturbed at ZT0 or ZT12, or after 3 days of active work (ZT0) or rest work (ZT12). (In general: A western blot detects proteins with antibodies after separation by electrophoresis.)

“brain-and-muscle arnt-like protein 1 (total BMAL1) (from UniProt Q9EPW1 1-626)”: the binding result was “binds”. In the case of “phosphorylated brain-and-muscle arnt-like protein 1 (p-BMAL1) (from UniProt Q9EPW1 1-626)” it was “binds”.
